Assay results reported in PubChem BioAssay AID1508600 (Functional Genomics Laboratory (NCATS/FGL), 2020).
Screen size: about 53,000 sequences; about 3,700 (7%) were called active.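 How the source made its calls: active means gene knockdowns whose robust z-score for IL-1 alpha signal is at least 2 or at most -2, so actives lie on both sides; inactive means the rest.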 This is one part of the list.

Assay: Components of the Cytosolic LPS Sensing Pathway: Gene Identification via Genome-wide siRNA Screen;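 further: robust z of the log signal after scaling to non-targeting control siRNA wells of the plate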
Settings: RAW264.7 macrophages, IL-1a HTRF, actives lie on both sides, screened at 100 nM (by protocol), cells primed 5 h with Pam3CSK4 first
Summary of the method: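 RAW264.7 mouse macrophages reverse-transfected with single siRNAs (100 nM final) for 48h, primed with Pam3CSK4 for 5 hours, then transfected with LipidA for 24 hour. Supernatant IL-1a read by HTRF; values normalized to negative-control median, log-transformed robust z-scores.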

Sequence	z-score
GGACCUGAAGUGUUUAGUCTT against Magoh	inactive: -1.92
CCACACGUGUUUCAAAAUGTT against Parp8	inactive: 0.297
GCACUGCCGGGAGUACUUATT against 5330438D12Rik	inactive: -0.287
GGAUCUUCUUUGUUGGUGCTT against Vmn1r6	inactive: -0.462
GGCCAGACCAAAAUCAAGCTT against Shox2	inactive: -1.79
GGUGAUGGAAAUAAACUACTT against Dhrs7b	inactive: 1.44
GGAAGGAGACACAGAAGAGTT against Marcksl1	inactive: 0.491
GGAAAGCUUUCUUCACCUGTT against Olfr206	inactive: -1.73
GGAAUAAUGAGGUUAUUGATT against Olfr695	inactive: 0.459
GAGAUAAGAUGGGAAAAAATT against Ssbp2	inactive: -0.338
GCCAUAACCGACUACGAGATT against Tsku	inactive: 0.158
GCAGCUUGUAUGCAGCACUTT against Fam111a	inactive: -0.208
GAAGCAGGCCUGGGAUCUUTT against Vmn1r41	active: 2.01
GGUAUAUGCGGAUCCUGAUTT against Limk2	inactive: -0.251
GGAGAGACAGUUGUACACGTT against Sigmar1	inactive: -0.144
GGCACUAAUGGAGAGACUGTT against Nr6a1	active: 3.53
GGUGUCCAAGAUAAUUUGUTT against Gusb	inactive: -0.547
GCCAUCAUACUGUCACCAGTT against Sys1	inactive: 0.758
GGCAUUGGUGAAUCAUAUGTT against Olfr51	inactive: 0.0319
GGGAAAGUGACUCCUGCUATT against Exo5	inactive: 0.208
GGGAAAAUAACGUGACUGATT against Olfr1270	inactive: 0.167
GCUCAACUUACGUUCACUCTT against Vps72	active: -2.53

Sequence	z-score
GGUGUUCCUCAUGGUGACCTT against Tmem161a	inactive: 0.238
GGUAUUGAGUGAUAACUACTT against Klhdc7a	inactive: 1.29
GGUUAGUAUGUAGCUCCCATT against Olfr982	inactive: -0.401
CCUGCUCUAUGGCAGAACGTT against Nkx2-4	inactive: 0.992
GGCACACUUGUGUAAUAUUTT against Nop16	inactive: -0.121
GGAGUCUUUCAUUGAAGAATT against Snx12	inactive: -0.0406
GCAAUUGCGUAUCGUAAAUTT against Epha4	inactive: -0.0039
GCUGAAGCAUACAUUUGUGTT against Tas2r137	inactive: -0.226
GGAAUAGUGGCUUCUUUUATT against Rsph3a	inactive: -0.00182
GGACAAACUGGUCAUCGGGTT against Mrps28	inactive: 1.28
GGUUAUUUGGAAGUGCUACTT against Esx1	active: 2.81
GGUAGACAAGAUCAUCGGATT against Dsc3	inactive: 0.711
CCAUUUCUUUCAGUGGCUGTT against Olfr48	inactive: -0.47
GCAAAUCGAUAUCAAACACTT against Slc30a1	inactive: -0.512
CGUCAAGAUCAAUAACUUGTT against Gm4788	inactive: 0.508
GGUGGUUGAGGAAUGUAAGTT against Kifap3	inactive: -0.126
GGCUCUAUGUCUUUGGAGGTT against Klhdc1	inactive: -0.438
GGAGAGUUCAGACAAGGCATT against Irx2	inactive: -0.0732
GGAGAUCGACGCGUGUAUCTT against Reep4	inactive: 0.731
GGACCUUCGUGAGAAUUUCTT against Mst1	inactive: 0.521
GCUACGUUCGAUAUGGGUGTT against H2-T3	inactive: -0.17
GCUACCACAGGAUAUCCUUTT against Mcf2	inactive: 0.6

Sequence	z-score
GCACGGUGUGUACAACCCUTT against Mdh2	inactive: 0.784
GGUCGAUCACGUCAUCGAATT against Unc5a	inactive: -1.29
CCUACUUGAUAUUUUUGGUTT against Ccz1	inactive: 0.122
GGCUGAUUUAUACUGGAAATT against Tmem70	inactive: 1.67
GGUGCAUCACUUCAUGGAATT against Timm8b	inactive: 0.17
CCAGCAUUAUCCAUAUCAATT against Nat2	inactive: 0.786
CCAGAUUGUUGUGGAAGUATT against Zfy1	inactive: -1.2
GGAGAAAAUGAGGUUAAUGTT against Tspan5	inactive: 0.794
GGAGAUUUUCCAGUACACUTT against Slx4	inactive: -0.416
CUUGGUGACAGACAAUGUCTT against H2-D1	inactive: 0.181
GGAGAAUGUGUUGGUCAUUTT against Pfkfb4	inactive: 0.0548
GGUACCAUCAGAACCUGUCTT against Pop5	inactive: 0.922
CGUGAUGCUGUAAAUAGUUTT against AI606181	inactive: -0.485
CCCAGUGACUAAUGGAUAUTT against Dsg1b	inactive: 0.354
GGUCUUUGCUGUGCACUUUTT against Olfr1214	inactive: -1.16
CGUCUAGGAAGGAAACAGGTT against Stk32a	inactive: -1.54
GGCAUUUCAACAUCAAUAUTT against Vmn2r26	inactive: -0.34
CCAUUCACAGGUAGAGGAATT against Pdxdc1	inactive: 0.545
GGUACACCACGAAUGCACUTT against Epha1	inactive: 0.715
GGUGGAUUUUUUGUUGAUCTT against Naa20	inactive: -0.647
GGAGAAAUCGAUUCCCAUUTT against Olfr1132	inactive: 0.444
GGACACCGGGAUGUGCAAATT against Pglyrp1	inactive: 1.6

Sequence	z-score
CAUUGGUGACAAUAAGUAUTT against Ssx9	inactive: -0.172
CCUUGUAAUGUGAUUCUGGTT against Ctsr	inactive: 0.604
GCGAUUGUCAUUCUCUUUUTT against Jak3	inactive: 0.711
GCCCGAGUUAGAGCAGUUATT against Inca1	inactive: 0.78
GGAUGUGACUAAAGUCAACTT against Plet1	inactive: 0.699
GGUUCAAGUGCAUUGCUUCTT against Rab34	inactive: 0.979
GGUUUUUUGCUCUAUUUGATT against Ppip5k1	inactive: 0.0552
GGGUUUUUAAGUUCACUGATT against St7l	inactive: -0.998
GGAAGUGGUGGACAAAGUGTT against S100b	inactive: -0.0507
GGUGGAGACUAAUCCAUUATT against Esco1	inactive: 1.16
GCAGGACAACCAGCUGGUATT against Tmem107	active: 3.43
GGGCAUGGCUGUCUUACUCTT against Cend1	inactive: -1.66
GCCAAAUUGCACCAUGUAUTT against Spinkl	inactive: -1.65
GACAGAAUGCCAUUUCCUATT against Olfr902	inactive: -0.325
GGGAAGAAGUUUAAAAGAATT against Rdh11	inactive: -0.466
GGAGCAGAAUCCUUAUCGATT against Trpv5	inactive: -0.301
GGAUCAUUAGAUAAGUCAATT against Xpo4	inactive: -0.853
CCGUAAUUGAUUCUUUACUTT against Kif3a	inactive: 0.0217
CCCUUCGAUAACCAGAUCCTT against Utf1	inactive: 0.786
GGCUUCUCAGCUAGAAAACTT against Atxn7l2	inactive: -0.619
GCCGUUUUACAAAAGCUUUTT against Foxn3	inactive: -0.974
GGAGGGUGUCAUUUUGCCATT against Slc8a3	inactive: -1.26

Sequence	z-score
GCCUGAAUUCCACUACUCGTT against Def8	inactive: 0.551
GGACUAAAAAAAGUAGUGUTT against Abca5	inactive: -0.838
GGAGAUGCAAAGUCUGUCUTT against Krt33a	inactive: 0.726
GGUCGAUUGAAGUGGAAAATT against Sh3kbp1	inactive: -0.221
GGAACUCACCUACCAAGAATT against Ankrd40	inactive: -1.24
GGAAUUGAUCACUAACCCUTT against Adgre5	inactive: 1.07
CCCAUGUCGUGACAUCACATT against Slc26a7	active: -2.93
GGAGCAGUUUGAACGAAUCTT against Aldh1b1	inactive: -0.334
GGCCAGCAAAACAAAUGACTT against Slc34a2	inactive: -1.01
GGUCAUUUUGGGAUAUCAGTT against Lman1	inactive: -1.19
GGAAAUCUGAUGUGGAAAGTT against Med14	inactive: -0.97
GGAUGACCAACAUUUUACATT against Ptprf	inactive: -0.261
GGGAAUUUGCUCCUGAAGGTT against Pcdhb8	inactive: -0.781
GGCACAGGUUAGAUGAGAGTT against Sarm1	inactive: 0.33
CCACCAUGUAUCUUUGAGUTT against 1700123O20Rik	inactive: -0.257
CGGAACAAAUGUCUUGGGCTT against Kcnrg	inactive: 0.347
GGUUUAACUUUAAUGAUGGTT against Cacna1e	inactive: -1.39
GGAUGUAACAUUUCUUCAATT against Rmi1	inactive: 0.567
GGUGUUUGCCUCAGAAAUCTT against Cdk17	inactive: -0.676

Individual results from the list.
CGGAACAAAUGUCUUGGGCTT against Kcnrg | z-score: inactive: 0.347
GGAAUAGUGGCUUCUUUUATT against Rsph3a | z-score: inactive: -0.00182
GGAUGACCAACAUUUUACATT against Ptprf | z-score: inactive: -0.261
GGUUUUUUGCUCUAUUUGATT against Ppip5k1 | z-score: inactive: 0.0552
